Laboratory results as given in patent US9957247B2, “SecA inhibitors and methods of making and using thereof” (Georgia State University Research Foundation, Inc., priority 2012, dated 2018).
For part of these data: For at least one compound, name, drawing or mass did not settle the structure. Some of these results come from one statement about several compounds together.

Legend:
[1] = system: SecA (S. pyogenes, S. aureus, and E. coli); assay: Oocyte assay, inhibition of SecA; details: read-out: IC50, inhibiting SecA in the oocyte assay
[2] = system: S. aureus Mu50; assay: Bacteriostatic effect, S. aureus Mu50; details: text b443
[3] = system: S. aureus Mu50; assay: Bactericidal effect, S. aureus Mu50; details: Table 2

## CSc1nc(Cl)cc(Sc2nnc(-c3cc(C(F)(F)F)cc(C(F)(F)F)c3)[nH]2)n1 [SCA-107]
[1]
  IC50: 500 to 900 nM

## Gentamycin
[2]
  MIC95 against drug resistant S. aureus Mu50: over 100 μM

## O=C(N[C@H](CO)[C@H](O)c1ccc([N+](=O)[O-])cc1)C(Cl)Cl [Chloramphenic]
[3]
  Bactericidal, S. aureus Mu50: −
